# The supplement of paper PMC8728848
# The list shows a part of the results.
# B1: LlpA (Burkholderia cenocepacia) (protein)
# chain: MGSSHHHHHHSSGLVPRGSHKILGSNETLSAGNVVYSDNGQYHLAMQTDGNLVVYGPTGAVWQSQTSGSGGNRAVMQGDGNLVIYRADNTAAWSSKTAHPGAFLAVQDDGNVVIYWPRPAWASNTSDPATQQSAESKYLASGSTMSAGQTVTVAQYMLVFQADGNLVLYKNGGNPIWSTGTQGKGATYAVMQSDGNFVIYAGSTALWSTKTNGANGAQLVLQSDGNLVIYAPTAAWSTKFGLVTAPTSTSTSNNGPGSGICVGVCPPHPLNGNPFSPVGVGTTGLGFPTPGYPGAAF
# Key:
# Experiment in all cases: glycan array binding signal (z-score within array); higher = stronger binding
# Settings in all cases: glycan notation: IUPAC condensed, linker removed
# [1] = target: GalNAc(b1-4)GlcNAc
# Method in brief: (§1)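 The binding signal is a Z-score computed within each array. Data were drawn from 3228 arrays in the Consortium for Functional Glycomics database, restricted to those with a known protein sequence. Scores were averaged over arrays of the same protein sequence at different concentrations or buffers, and over linkers, and negative values can be taken as non-binding.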
# [2] = target: GalNAc(b1-4)GlcNAc(b1-2)Man
# Method in brief: as §1
# [3] = target: GalNAc(b1-4)GlcNAc(b1-2)Man(a1-3)[GalNAc(b1-4)GlcNAc(b1-2)Man(a1-6)]Man(b1-4)GlcNAc(b1-4)GlcNAc
# Method in brief: as §1
# [4] = target: GalNAc(b1-4)GlcNAc(b1-3)GalNAc(b1-4)GlcNAc
# Method in brief: as §1
# [5] = target: GalNAc(b1-4)GlcNAc6S
# Method in brief: as §1
# [6] = target: GalNAc(b1-6)GalNAc
# Method in brief: as §1
# [7] = target: GalNAc3S(b1-4)GlcNAc
# Method in brief: as §1
# [8] = target: GalNAc3S(b1-4)GlcNAc3S
# Method in brief: as §1
# [9] = target: GalNAc3S(b1-4)[Fuc(a1-3)]GlcNAc
# Method in brief: as §1
# [10] = target: GalNAc4S6S(b1-4)GlcNAc
# Method in brief: as §1
# [11] = target: GalNAc6S(b1-4)GlcNAc
# Method in brief: as §1
# [12] = target: Glc(a1-4)Glc
# Method in brief: as §1
# [13] = target: Glc(a1-4)Glc(a1-4)Glc(a1-4)Glc
# Method in brief: as §1
# [14] = target: Glc(a1-6)Glc(a1-6)Glc
# Method in brief: as §1
# [15] = target: Glc(a1-6)Glc(a1-6)Glc(a1-6)Glc
# Method in brief: as §1
# [16] = target: Glc(b1-4)Glc
# Method in brief: as §1
# [17] = target: Glc(b1-6)Glc
# Method in brief: as §1
# [18] = target: GlcA(b1-3)Gal
# Method in brief: as §1
# [19] = target: GlcA(b1-3)GlcNAc
# Method in brief: as §1
# [20] = target: GlcA(b1-6)Gal
# Method in brief: as §1
# [21] = target: GlcA3S(b1-3)Gal(b1-4)GlcNAc(b1-2)Man
# Method in brief: as §1
# [22] = target: GlcA3S(b1-3)Gal(b1-4)GlcNAc(b1-3)Gal(b1-4)Glc
# Method in brief: as §1
# [23] = target: GlcNAc(a1-3)Gal(b1-4)GlcNAc
# Method in brief: as §1
# [24] = target: GlcNAc(a1-4)Gal(b1-3)GlcNAc
# Method in brief: as §1
# [25] = target: GlcNAc(a1-4)Gal(b1-4)GalNAc
# Method in brief: as §1
# [26] = target: GlcNAc(a1-4)Gal(b1-4)GlcNAc
# Method in brief: as §1
# [27] = target: GlcNAc(a1-4)Gal(b1-4)GlcNAc(b1-3)Gal(b1-4)Glc
# Method in brief: as §1
# [28] = target: GlcNAc(a1-4)Gal(b1-4)GlcNAc(b1-3)Gal(b1-4)GlcNAc
# Method in brief: as §1
# [29] = target: GlcNAc(a1-4)Gal(b1-4)GlcNAc(b1-3)Gal(b1-4)GlcNAc(b1-3)Gal(b1-4)GlcNAc
# Method in brief: as §1
# [30] = target: GlcNAc(a1-4)Gal(b1-4)GlcNAc(b1-3)Gal(b1-4)[Fuc(a1-3)]GlcNAc(b1-3)Gal(b1-4)[Fuc(a1-3)]GlcNAc
# Method in brief: as §1
# [31] = target: GlcNAc(a1-6)Gal(b1-4)GlcNAc
# Method in brief: as §1
# [32] = target: GlcNAc(b1-2)Gal(b1-3)GalNAc
# Method in brief: as §1
# [33] = target: GlcNAc(b1-2)Man(a1-3)[GlcNAc(b1-2)Man(a1-6)]Man(b1-4)GlcNAc(b1-4)GlcNAc
# Method in brief: as §1
# [34] = target: GlcNAc(b1-2)Man(a1-3)[GlcNAc(b1-2)Man(a1-6)]Man(b1-4)GlcNAc(b1-4)[Fuc(a1-6)]GlcNAc
# Method in brief: as §1
# [35] = target: GlcNAc(b1-2)Man(a1-3)[GlcNAc(b1-4)][GlcNAc(b1-2)Man(a1-6)]Man(b1-4)GlcNAc(b1-4)GlcNAc
# Method in brief: as §1
# [36] = target: GlcNAc(b1-2)Man(a1-3)[GlcNAc(b1-4)][GlcNAc(b1-2)Man(a1-6)]Man(b1-4)GlcNAc(b1-4)[Fuc(a1-6)]GlcNAc
# Method in brief: as §1
# [37] = target: GlcNAc(b1-2)[GlcNAc(b1-4)]Man(a1-3)[GlcNAc(b1-2)Man(a1-6)]Man(b1-4)GlcNAc(b1-4)GlcNAc
# Method in brief: as §1
binder,measurement,setting,value
B1,glycan array binding signal (z-score),[1],0.076
same,glycan array binding signal (z-score),[2],-0.899
same,glycan array binding signal (z-score),[3],-0.504
same,glycan array binding signal (z-score),[4],0.099
same,glycan array binding signal (z-score),[5],-0.918
same,glycan array binding signal (z-score),[6],-0.842
same,glycan array binding signal (z-score),[7],-0.027
same,glycan array binding signal (z-score),[8],0.091
same,glycan array binding signal (z-score),[9],0.017
same,glycan array binding signal (z-score),[10],-0.004
same,glycan array binding signal (z-score),[11],1.3
same,glycan array binding signal (z-score),[12],-0.497
same,glycan array binding signal (z-score),[13],0.386
same,glycan array binding signal (z-score),[14],-0.468
same,glycan array binding signal (z-score),[15],0.011
same,glycan array binding signal (z-score),[16],-0.452
same,glycan array binding signal (z-score),[17],-1.14
same,glycan array binding signal (z-score),[18],-0.071
same,glycan array binding signal (z-score),[19],-0.512
same,glycan array binding signal (z-score),[20],-0.4
same,glycan array binding signal (z-score),[21],0.331
same,glycan array binding signal (z-score),[22],-1.62
same,glycan array binding signal (z-score),[23],0.615
same,glycan array binding signal (z-score),[24],-1.47
same,glycan array binding signal (z-score),[25],-0.6
same,glycan array binding signal (z-score),[26],-0.431
same,glycan array binding signal (z-score),[27],-0.208
same,glycan array binding signal (z-score),[28],0.019
same,glycan array binding signal (z-score),[29],-0.456
same,glycan array binding signal (z-score),[30],1.67
same,glycan array binding signal (z-score),[31],-0.035
same,glycan array binding signal (z-score),[32],-0.078
same,glycan array binding signal (z-score),[33],-0.014
same,glycan array binding signal (z-score),[34],-0.074
same,glycan array binding signal (z-score),[35],0.686
same,glycan array binding signal (z-score),[36],-0.623
same,glycan array binding signal (z-score),[37],-0.382

# Looked up one by one from above (2):
binder,measurement,setting,value
B1,glycan array binding signal (z-score),[15],0.011
same,glycan array binding signal (z-score),[8],0.091
